The source of these data is article PMC9281127.

Chains of the proteins cited; added tags and fusions are not shown. Residues count along the entry.
UniProt Q9NZQ7, residues 19-290: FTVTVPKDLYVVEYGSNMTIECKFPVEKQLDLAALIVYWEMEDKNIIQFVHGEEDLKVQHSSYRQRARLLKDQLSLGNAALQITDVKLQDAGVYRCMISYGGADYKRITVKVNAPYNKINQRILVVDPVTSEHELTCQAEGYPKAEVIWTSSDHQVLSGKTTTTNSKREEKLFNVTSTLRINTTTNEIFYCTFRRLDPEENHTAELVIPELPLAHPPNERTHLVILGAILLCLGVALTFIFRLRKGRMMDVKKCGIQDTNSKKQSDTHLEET

The experiment has as its target His-tagged PD-L1 (programmed death-ligand 1) (UniProt Q9NZQ7). The experiment can be described thus: co-IP; plasmids for Flag-tagged ZG16 and His-tagged PD-L1 (wild type or mutants) co-transfected into SW480 or HCT116 cells; single vectors expressing each tag as negative controls.

These are yes or no findings as the source states them, for the method shown. In cells and extracts the contact can be indirect. Some binding calls cover weakened binding; strength is not graded here. Where a sequence is shown, tags or fusion partners need not be part of it.

B1: Flag-tagged ZG16 (zymogen granule protein 16) (protein, UniProt O60844 17-167)
chain: NAIQARSSSYSGEYGGGGGKRFSHSGNQLDGPITALRVRVNTYYIVGLQVRYGKVWSDYVGGRNGDLEEIFLHPGESVIQVSGKYKWYLKKLVFVTDKGRYLSFGKDSGTSFNAVPLHPNTVLRFISGRSGSLIDAIGLHWDVYPSSCSRC
Take B1: the binding result is “binds”.

B2: Flag-tagged ZG16-D151A (protein, UniProt O60844 17-167)
chain: NAIQARSSSYSGEYGGGGGKRFSHSGNQLDGPITALRVRVNTYYIVGLQVRYGKVWSDYVGGRNGDLEEIFLHPGESVIQVSGKYKWYLKKLVFVTDKGRYLSFGKDSGTSFNAVPLHPNTVLRFISGRSGSLIAAIGLHWDVYPSSCSRC
On to B2, for which the binding result was “binds”.
